Several values for one entry are separate records, joined by “and”; a condition that tells them apart may be missing. Identical values can stand only once. The list shows a part of the results. The main result of the screen is listed elsewhere. These columns were measured beside it and carry no call. The list favours compounds with an active or inconclusive main result. The note in brackets gives the kind of curve behind each potency; many fits are weak.
Assay: qHTS Assay for Lipid Storage Modulators in Drosophila S3 Cells;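 on cell number change: cells counted by Cell Tracker Red CMTPX staining in the red channel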
Settings: BODIPY lipid droplet fluorescence, 18-24 h; for cell number change: measured here: cell count max response, cells fed with added oleic acid
Procedure, shortened: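 Drosophila S3 cells loaded with oleic acid (400 uM, as added) and compounds at several concentrations; lipid droplets imaged by 488-nm laser-scanning cytometry, 500–530 nm intensity and object ratio to cell channel. Percent activity normalized to 20 uM Triacsin C.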

[1] = measured here: lipid fluorescence (Fed channel) AC50, cells fed with added oleic acid
[2] = measured here: cell number channel AC50, cells fed with added oleic acid

SMILES	cell number change [%]	AC50 [1]	AC50 [2]
Cc1nc2ccccc2c(=O)n1-n1cnnc1	182	4.11 µM [rising, full curve]	
Cc1ccc(C(C)C)c(OCCn2c(=O)oc3ccccc32)c1			18.4 µM [falling, single point]
CCC/C(=N\O)c1c[nH]c2ccccc12	2.23		
CC(C)(C)c1ccc(O)c(N=Cc2c(O)ccc3ccccc23)c1	-64.3	23.1 µM [falling, single point]	25.9 µM [falling, partial curve]
COC(=O)C1=C(c2cccc(C#N)c2)C[C@@H]2CC[C@H]1N2C(=O)NCCOc1ccccc1Cl	-40.2	1.46 µM [falling, partial curve]	1.16 µM [falling, full curve]
COC(=O)C1=C(c2ccc(OC(F)(F)F)cc2)C[C@@H]2CC[C@H]1N2C(=O)NCCNC(C)=O	7.82	11.6 µM [rising, partial curve]	
C=CCN1C(=O)C2(C(C(=O)OCC)=C(N)Oc3ccccc32)C2=C1CCCC2=O (centres undefined)	9.92	29.1 µM [rising, single point]	
CC(C)OCC(O)CN1CC2C[C@@H](C1)Cn1c2cccc1=O (some centres undefined)	4.17		
O=P(CCl)(Nc1ccccc1)C(Cl)(Cl)Cl (centres undefined)	29.8		
Cc1nn(Cc2ccccc2)c(C)c1C=C1C(=O)NC(=S)NC1=O		0.00461 µM [falling, full curve, poor fit]	
Cc1ccc(-c2nn(CCC#N)cc2C(=O)O)cc1C	-47.8	1.84 µM [falling, partial curve]	2.91 µM [falling, full curve]
CCOc1ccc(CN2CCCC(C(=O)c3ccccc3OC)C2)cc1 (centres undefined)	-0.275		
COCCN(CC(=O)Oc1ccccc1P(=O)(OC)OC)Cc1ccccc1			0.13 µM [falling, full curve, poor fit]
CCCc1[nH]nc2c1C1(C(=O)N(CC(N)=O)c3ccccc31)C(C(=O)OC)=C(N)O2 (centres undefined)	-5.71	29.1 µM [falling, single point]	
O=c1c2ccccc2nc(-c2cccs2)n1-c1cnccn1	-0.129		
Cc1ccc2nsnc2c1-n1c(C)nc2ccccc2c1=O	19.5	18.4 µM [rising, single point]	
CC/C(CC(c1ccccc1)c1c(O)c2ccccc2oc1=O)=N\NC(N)=S (centres undefined)	20.4	9.2 µM [rising, partial curve, poor fit]	
Cc1ccc(OCC(=O)Nc2ccc(Cl)cc2C(=O)c2ccccc2)cc1	29.6		0.461 µM [falling, single point]
OCCNc1c2c(nc3ccccc13)CCCC2	0.612	29.1 µM [falling, single point]	
C[C@]12CC[C@H](OS(=O)(=O)O)CC1=CC[C@@H]1[C@@H]2CC[C@]2(C)C(=O)CC[C@@H]12	-51.1	116 nM [rising, full curve, poor fit] and 29.1 µM [falling, single point]	29.1 µM [falling, single point]

SMILES	cell number change [%]	AC50 [1]	AC50 [2]
Cc1csc(NC(=O)CCn2c(=O)oc3ccc(Cl)cc32)n1			0.92 µM [falling, full curve]
O=C(CN1CCCC1)Nc1ccc(Cl)cc1C(=O)c1ccccc1		6.51 µM [falling, single point]	5.8 µM [falling, single point]
O=C(Nc1ccccc1)OC1CN=C(N[N+](=O)[O-])NC1 (centres undefined)	-42.1		6.51 µM [falling, full curve, poor fit]
c1ccc2nc(N3CCNCC3)ccc2c1	9.43	0.517 µM [falling, single point]	
COc1ccc(-n2c(-c3ccc(C)cc3)nc3ccccc3c2=O)cc1	-50.6	29.1 µM [falling, single point]	29.1 µM [falling, single point]
CC(C)c1ccc(N=Nc2c(O)[nH]c(=O)[nH]c2=O)cc1	11.8	0.92 µM [rising, full curve]	
CC(NC(=O)Cn1c(=O)oc2cc(S(=O)(=O)N3CCCC3)ccc21)c1ccccc1 (centres undefined)			11.6 µM [rising, partial curve, poor fit]
Cc1cc(OCc2nn[nH]n2)c2c3c(c(=O)oc2c1)CCC3	37		16.4 µM [rising, partial curve, poor fit]
COC(=O)C1=C(c2ccc(-c3ccccc3)c(F)c2)C[C@@H]2CC[C@H]1N2C(=O)NCCc1ccccc1	-32		14.6 µM [falling, single point]
CCOCCN1CCN(c2nnc3n2-c2ccc(Cl)cc2C(c2ccccc2Cl)=NC3)CC1	-13.6	1.46 µM [rising, partial curve, poor fit]	
CNCCc1nc(N)n[nH]1	-47.6		23.1 µM [falling, partial curve]
COC(=O)C1=C(c2c(C)noc2C)C[C@@H]2CC[C@H]1N2C(=O)N1CCCC1	-17.9		0.092 µM [falling, full curve, poor fit]
COc1ccccc1N1CCN(Cc2cc(C)c(C)cc2O)CC1	9.1		
O=C(c1cccs1)C1CN2CCC1CC2 (centres undefined)	-97.9	2.59 µM [falling, full curve]	
CN(C)c1ccc(/C=C2/C(=O)NC(=O)N(CCc3ccc(F)cc3)C2=O)cc1	7.95	0.82 µM [falling, full curve, poor fit]	
O=C1OCCC1NC1=NCCC1 (centres undefined)	-136	25.9 µM [falling, partial curve]	23.1 µM [falling, partial curve]
O=C1NC(=O)N(Cc2ccccc2)C(=O)/C1=C/c1cnn(-c2ccccc2)c1		20.6 µM [rising, single point]	
O=C(c1cc2c(s1)CCCCCC2)N1CCC2(CC1)OCCO2	-65.3		18.4 µM [falling, partial curve]
O=C1CN=C(c2ccccc2F)c2cc(Cl)ccc2N1	-18.8	32.6 µM [falling, single point]	
O=C(C1CCC(=O)N1Cc1ccc(F)cc1)N1CCC2(CC1)OCCO2 (centres undefined)	20.4	29.1 µM [rising, single point]	

SMILES	cell number change [%]	AC50 [1]	AC50 [2]
Cc1ccc(OCC(=O)N2CCN(C3CCC(c4ccccc4)CC3)CC2)cc1 (centres undefined)	-14.7	0.00731 µM [falling, full curve, poor fit]	
O=[N+]([O-])c1ccc(Cl)cc1	3.95	5.17 µM [rising, single point]	0.651 µM [rising, partial curve]
COc1ccccc1-n1c(Cc2ccccc2)nc2ccccc2c1=O			0.103 µM [rising, full curve, poor fit]
Cc1ccc(S(=O)(=O)CC(=O)c2cc(C)c(OC(=O)N(C)C)c(C)c2)cc1	-19.6	20.6 µM [falling, single point]	
C=C1C(=O)O[C@@H]2C[C@@H](C)[C@@H]3C=CC(=O)[C@@]3(C)[C@@H](O)[C@H]12	-67.1	5.8 µM [falling, full curve]	5.8 µM [falling, partial curve]
O=C(COC(=O)Cc1ccccc1)Nc1ccc(Cl)cn1	2.57		
CCN(C(=O)COC(=O)Cc1ccccc1)c1c(N)n(Cc2ccccc2)c(=O)[nH]c1=O	-8.56	2.59 µM [falling, single point]	
COP(=O)(CC(=O)c1ccccc1)CC(=O)c1ccccc1			18.4 µM [falling, single point]
CC[N+]12CCC(CC1)C(C(O)(c1ccccc1)c1ccccc1)C2 (centres undefined)	5.26	29.1 µM [rising, single point]	
Cc1cccc(C)c1N1CCN(c2c(C)cccc2C)CC1	-2.46		
CC(=O)c1c(C)n(CC2CCCO2)c2ccc(O)cc12 (centres undefined)	-6.88	14.6 µM [rising, single point]	
Cc1ccc(CCN2CC(C(=O)N3CCC4(CC3)OCCO4)CC2=O)cc1 (centres undefined)	-7.89	1.64 µM [falling, partial curve]	
CCOP(=O)(OCC)C1(O)C(=O)Nc2ccc(Br)cc21 (centres undefined)	14.8	3.26 µM [rising, full curve]	
CNC(=O)ON(C(=O)NC)C1N(C)C(=S)SC1(C)C (centres undefined)	14.7	6.51 µM [falling, single point]	
COc1ccc(P2(=O)Nc3ccccc3N2)cc1	-25.1	8.2 µM [falling, partial curve]	
CCCC/C(C)=C/[C@@H](NP(=O)(c1ccccc1)c1ccccc1)c1ccccc1	-62.9	4.11 µM [falling, full curve, poor fit]	20.6 µM [falling, single point]
C[N+]1(C)[C@@H]2CC[C@H]1CC(OC(=O)C(c1ccccc1)c1ccccc1)C2 (some centres undefined)	-6.94		
CC1(C(O)(C#CCN2CCCCC2)c2ccccc2)CCCC1 (centres undefined)	-39	25.9 µM [falling, partial curve, poor fit]	23.1 µM [falling, single point]
Nc1c(C(=O)NCCN2CCOCC2)c2nc3ccccc3nc2n1Cc1ccco1	-5.69	0.00517 µM [rising, full curve, poor fit]	
COc1ccccc1CN1CCN(C(=O)COc2ccc3ccccc3c2)CC1	19.1	1.46 µM [rising, partial curve]	6.51 µM [rising, partial curve]

From PubChem BioAssay AID2685 (National Center for Advancing Translational Sciences (NCATS), 2010)
